Over roughly 33,000 sequences, “E-score (-0.5 to 0.5)” has its median near -0.0014; the highest 2% begin near 0.25. Some of the results follow.
Biological target: T1, Cad1 (UniProt P24813)
T1 sequence: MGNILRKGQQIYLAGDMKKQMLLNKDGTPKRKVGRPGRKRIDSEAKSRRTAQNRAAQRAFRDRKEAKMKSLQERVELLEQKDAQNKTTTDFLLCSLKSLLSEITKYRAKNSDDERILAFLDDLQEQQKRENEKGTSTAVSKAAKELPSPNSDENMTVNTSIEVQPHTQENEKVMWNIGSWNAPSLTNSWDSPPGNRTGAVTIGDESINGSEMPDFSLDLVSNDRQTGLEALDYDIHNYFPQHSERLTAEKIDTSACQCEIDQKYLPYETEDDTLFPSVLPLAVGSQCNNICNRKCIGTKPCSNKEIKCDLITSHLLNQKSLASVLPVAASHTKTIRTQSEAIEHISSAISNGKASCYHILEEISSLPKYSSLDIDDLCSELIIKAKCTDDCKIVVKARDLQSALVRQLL
Experiment: PBM E-score (8-mer binding enrichment) (E-score (-0.5 to 0.5)); higher = stronger / more preferred TF binding
Conditions: protein concentration: 100 nM; construct: GST-full length
How it was run: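 Each ungapped eight-base word and its reverse complement, pooled, received an E-score from the Universal PBM Analysis Suite. Underlying scans, normalised with masliner, recorded fluorescent anti-GST bound to GST-tagged yeast transcription factors. These were applied at about 100-200 nM to universal all-10-mer Agilent arrays double-stranded by primer extension.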

Question: GCTGACCC was tested. Which “PBM E-score” value did it give?
Answer: -0.145

Question: For ACGATCAA, which “PBM E-score” value is on record?
Answer: 0.00497

Question: How did the “PBM E-score” value turn out when CAACTGGC was run?
Answer: -0.089

Question: Which “PBM E-score” value does the source give for CCTCCACC here?
Answer: -0.282

Question: How did the “PBM E-score” value turn out when TAGTAGAA was run?
Answer: 0.0754

Question: With ATTGTAGA as the sequence, how does the “PBM E-score” value read?
Answer: 0.0701

Question: Which “PBM E-score” value does the source give for GGGCTTAA here?
Answer: -0.0694

Question: How did the “PBM E-score” value turn out when GCGGCGAA was run?
Answer: -0.0495

Question: Which “PBM E-score” value does the source give for AGGGTAGG here?
Answer: -0.015

Question: For AGTGGTTA, which “PBM E-score” value is on record?
Answer: -0.0534

Question: For CCATACGC, which “PBM E-score” value is on record?
Answer: 0.0527

Question: Which “PBM E-score” value does the source give for AAGCCTTA here?
Answer: -0.116

Question: For AAAGACTG, which “PBM E-score” value is on record?
Answer: -0.16

Question: Which “PBM E-score” value does the source give for GTCGTGCA here?
Answer: 0.0244

Question: With AGTTATTC as the sequence, how does the “PBM E-score” value read?
Answer: 0.116

Question: With ATACAGTG as the sequence, how does the “PBM E-score” value read?
Answer: 0.0241

Question: For ACTTGGTA, which “PBM E-score” value is on record?
Answer: 0.0965

Question: CTGGGGAC was tested. Which “PBM E-score” value did it give?
Answer: -0.367

Question: For GGGGTACC, which “PBM E-score” value is on record?
Answer: -0.38

Question: Which “PBM E-score” value does the source give for ATTTACCG here?
Answer: 0.0146

Question: Which “PBM E-score” value does the source give for GTCCGGTA here?
Answer: -0.0206

Question: With CGTATTTC as the sequence, how does the “PBM E-score” value read?
Answer: 0.162

Question: Which “PBM E-score” value does the source give for CATATGCG here?
Answer: 0.0103

Question: AACCTCAA was tested. Which “PBM E-score” value did it give?
Answer: -0.0446

Question: GGCTCTTA was tested. Which “PBM E-score” value did it give?
Answer: -0.143

Question: With GTACCAAA as the sequence, how does the “PBM E-score” value read?
Answer: -0.018

Question: With GGGTTGTA as the sequence, how does the “PBM E-score” value read?
Answer: -0.0992

Question: Which “PBM E-score” value does the source give for CGAGGACG here?
Answer: 0.052

Question: ATGGATCC was tested. Which “PBM E-score” value did it give?
Answer: 0.0803

Question: With GATTCGAC as the sequence, how does the “PBM E-score” value read?
Answer: -0.0892

Question: How did the “PBM E-score” value turn out when ATGGGGTA was run?
Answer: 0.0733

Question: For TCGGAAGA, which “PBM E-score” value is on record?
Answer: -0.114

Question: TCCATCGA was tested. Which “PBM E-score” value did it give?
Answer: 0.0896

Question: Which “PBM E-score” value does the source give for TGCGCGAA here?
Answer: 0.244

Question: For CAATACCA, which “PBM E-score” value is on record?
Answer: 0.126

Question: Which “PBM E-score” value does the source give for TCTACTAA here?
Answer: 0.0958

Question: With GGTAGAGA as the sequence, how does the “PBM E-score” value read?
Answer: 0.0486

Question: How did the “PBM E-score” value turn out when AAATCGCG was run?
Answer: 0.137

Question: How did the “PBM E-score” value turn out when CTCATCTC was run?
Answer: 0.14

Question: With GCGCGCAC as the sequence, how does the “PBM E-score” value read?
Answer: 0.218

Question: How did the “PBM E-score” value turn out when CGGTGACG was run?
Answer: 0.00864

Question: GGCATGAC was tested. Which “PBM E-score” value did it give?
Answer: -0.0834

Question: TACTAATA was tested. Which “PBM E-score” value did it give?
Answer: 0.285

Question: ATAACTAT was tested. Which “PBM E-score” value did it give?
Answer: 0.0761

Question: CGTGTGTA was tested. Which “PBM E-score” value did it give?
Answer: 0.0544

Question: For CACTTTTA, which “PBM E-score” value is on record?
Answer: -0.0571

Question: With AATGCGTG as the sequence, how does the “PBM E-score” value read?
Answer: 0.0367

Question: For AATCCGGA, which “PBM E-score” value is on record?
Answer: 0.306

Question: For CGCCTCAA, which “PBM E-score” value is on record?
Answer: -0.122

Question: With ACGCCGCC as the sequence, how does the “PBM E-score” value read?
Answer: -0.223

Question: Which “PBM E-score” value does the source give for AGTGAGTA here?
Answer: 0.201

Question: How did the “PBM E-score” value turn out when AACGCGAA was run?
Answer: 0.298

Question: How did the “PBM E-score” value turn out when GTCGAGTA was run?
Answer: 0.0726

Question: Which “PBM E-score” value does the source give for GTTAGACA here?
Answer: 0.23

Question: For AAAAAGGT, which “PBM E-score” value is on record?
Answer: -0.0335

Question: For AAGTAACA, which “PBM E-score” value is on record?
Answer: 0.0629

Question: With GCCTTGAC as the sequence, how does the “PBM E-score” value read?
Answer: -0.0488

Question: Which “PBM E-score” value does the source give for CCGCTGAA here?
Answer: 0.0611

Question: With CCTGCTCA as the sequence, how does the “PBM E-score” value read?
Answer: -0.147

Question: ACTACGAG was tested. Which “PBM E-score” value did it give?
Answer: -0.137

Question: Which “PBM E-score” value does the source give for ACTCATAC here?
Answer: 0.149

Question: Which “PBM E-score” value does the source give for CTTAGACA here?
Answer: -0.076

Question: Which “PBM E-score” value does the source give for AAGGTCTA here?
Answer: -0.163

Question: Which “PBM E-score” value does the source give for AATCGCAT here?
Answer: 0.0873

Question: For TATTTGAA, which “PBM E-score” value is on record?
Answer: 0.101

Question: Which “PBM E-score” value does the source give for CCAACACA here?
Answer: 0.0731

Question: ATTGAAGC was tested. Which “PBM E-score” value did it give?
Answer: 0.0235

Question: How did the “PBM E-score” value turn out when CCTTAGCG was run?
Answer: 0.072

Question: Which “PBM E-score” value does the source give for GCCCAGAA here?
Answer: -0.0791

Question: With CTAGTAGC as the sequence, how does the “PBM E-score” value read?
Answer: -0.0333

Question: For CCAGCGGC, which “PBM E-score” value is on record?
Answer: -0.0709

Question: With CGGAGGCA as the sequence, how does the “PBM E-score” value read?
Answer: -0.0295

Question: CGACAGAC was tested. Which “PBM E-score” value did it give?
Answer: -0.0603

Question: Which “PBM E-score” value does the source give for GTAACTAC here?
Answer: 0.17

Question: Which “PBM E-score” value does the source give for AAATCTCT here?
Answer: -0.00298

Question: With GCGCCTTA as the sequence, how does the “PBM E-score” value read?
Answer: 0.192

Question: For AACCACAA, which “PBM E-score” value is on record?
Answer: 0.00676

Question: CGAAGCCA was tested. Which “PBM E-score” value did it give?
Answer: -0.0254

Question: For AGGTACAA, which “PBM E-score” value is on record?
Answer: 0.03

Question: How did the “PBM E-score” value turn out when ATTCCGAC was run?
Answer: -0.0345

Question: For AACTGAGG, which “PBM E-score” value is on record?
Answer: 0.0639

Question: Which “PBM E-score” value does the source give for GGTGAACA here?
Answer: -0.154

Question: AATGACTG was tested. Which “PBM E-score” value did it give?
Answer: 0.0578

Question: With AGCAATTA as the sequence, how does the “PBM E-score” value read?
Answer: 0.0458

Question: How did the “PBM E-score” value turn out when CCTGGACG was run?
Answer: -0.0668

Question: For AACTAGGT, which “PBM E-score” value is on record?
Answer: 0.0673

Reference: the supplement of paper PMC3334620
